System: CHO-S cells expressing IgG1 mAb1
Assay: Fed-batch culture in Spin Tubes, host cells expressing mAb1
Format: cell-based, Chinese Hamster
Details: 8.5 μM
Procedure: Assays were performed with 2 CHO cell lines: • CHO-S cells expressing IgG1 mAb1, herein “Cells mAb1” or “mAb1 cells”. “mAb1” is a fully human monoclonal antibody directed against a soluble protein. Its isoelectric point (pI) is about 8.20-8.30. • CHO-K1 cells expressing IgG1 mAb2, herein “Cells mAb2” or “mAb2 cells”. “mAb2” is a humanised monoclonal antibody directed against a receptor found on the cell membrane. Its isoelectric point (pI) is about 9.30. 2) Cell Expansion
Cells expressing mAb2 were inoculated at 0.2×10^6 cells per millilitre (mL), whereas cells expressing mAb1 were inoculated at 0.3×10^6 cells per mL.
All assays were performed in fed-batch culture. The host cells were cultured in fed-batch system either in microplates (“Deep well plate”) or in Spin Tubes®, and incubated at 36.5° C., 90% relative humidity, 5% CO2 and 320 rpm shaking during 14 days.
Viable cell density and viability were measured with the Guava easyCyte® flow cytometer or with the ViCell.
Antibody titres were measured with the fortêBIO Octet® or with Biacore C®.
Glycosylation profiles were established by capillary gel electrophoresis with laser-induced fluorescence (CGE-LIF). Dosages of aggregates and fragments were performed respectively via Size Exclusion High Performance Liquid Chromatography (SE-HPLC) and SDS-capillary gel electrophoresis.

## Nc1c(S(=O)(=O)O)cc(Nc2ccc(Nc3nc(Cl)nc(Nc4ccccc4S(=O)(=O)O)n3)c(S(=O)(=O)O)c2)c2c1C(=O)c1ccccc1C2=O [Cibacron Blue 3GA]
  quality of antibody mAb1 (glycosylation profile): not affected
mAb1
  percentage of fragments and aggregates: slightly decreased

Reference: patent publication US10767160B2, “Methods for modulating production profiles of recombinant proteins” (ARES TRADING S.A., priority 2015, dated 2020)
